# Source: PubChem BioAssay AID2685 (National Center for Advancing Translational Sciences (NCATS), 2010)
# Among all 320,000 compounds or so, about 2,100 (0.66%) were called active. The shares of active, inactive and inconclusive entries below differ from those in the screen. The call rests on the fitted dose curve; in most records, active means well fitted inhibition curve with a large enough effect in the signal ratio, with a control signal flat (not every such curve was filed as active); inconclusive means small, poorly fitted or top-dose-only effect, or effect the other way, or a change in a side signal; inactive means flat fitted curve, though single readings scatter; the % refers to the signal ratio. Potencies beside an inconclusive call are fits to weak or partial responses and may not hold up.
# Assay: qHTS Assay for Lipid Storage Modulators in Drosophila S3 Cells
# Details: BODIPY lipid droplet fluorescence, 18-24 h, cells fed with added oleic acid; lipid storage change, negative = inhibition: at 46.1 µM (top of the series) unless noted
# Method in brief: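 Drosophila S3 cells got compounds at several concentrations plus oleic acid (400 uM solution). Laser-scanning cytometry with 488 nm excitation read lipid droplets at 500-530 nm and cells at 575-640 nm. Percent activity was relative to 20 uM Triacsin C.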
# On the % scale 0 is the no-effect control and ±100 the full control effect; potency means the concentration at half of the fitted maximal effect.
Compound,"lipid storage change, negative = inhibition",Potency
COc1ccc(CN(CCC#N)C(=S)NC(=O)c2ccccc2)cc1,inconclusive: -0.802%,–
COc1ccc(Nc2c3c(nc4ccccc24)CCC3)cc1,inactive,–
O=C(Nc1nc(-c2ccc(Cl)cc2)cs1)c1cccnc1,inconclusive: 85.9%,–
O=C(COc1ccccc1F)Nc1nnc(-c2ccncc2)s1,inconclusive: -0.256%,–
O=C(COC(=O)c1nc(Cl)ccc1Cl)NC1CCCCC1,inconclusive: -15.5%,–
COc1ccccc1Oc1nc2c(c(=O)n(Cc3ccccc3F)c(=O)n2C)n1C,inconclusive: -37%,–
O=C(N/C(=C/c1ccccc1F)C(=O)N1CCCCC1)c1ccccc1,–,"inconclusive: 29.1 µM [activator, single point]"
CC(C)n1c(N2CCN(C(=O)NCc3ccccc3)CC2)nc2ccccc21,inactive,–
CCn1c(-c2ccc(OC)c(OC)c2)n[nH]c1=S,–,"inconclusive: 10.3 µM [activator, partial curve]"
O=C(c1ccc(F)c(S(=O)(=O)N2CCOCC2)c1)N1CCN(c2ncccn2)CC1,inconclusive: -0.328%,–
COC(=O)N/N=C/c1cc(N=Nc2ccccc2Cl)ccc1O,inconclusive: -2.62%,–
Cc1ccsc1C(=O)N1CCN(C(=O)c2ccco2)CC1,inconclusive: -16.3%,–
COc1ccc(C)cc1N(C)C(=O)c1coc(=O)c2ccccc12,inconclusive: 45.3%,–
Cc1ccc(CCC(=O)Nc2ccc([N+](=O)[O-])cc2Cl)o1,inconclusive: -28%,–
O=C(CCN1C(=O)/C(=C\c2ccco2)SC1=S)Nc1ccc(C(=O)O)c(O)c1,inactive,–
COc1ccc(CNc2cc(C)ccn2)c(O)c1,inconclusive: -14.7%,–
O=C(COC(=O)c1ccc(S(=O)(=O)NCc2ccco2)cc1)NCC1CCCCC1,–,active: 25.9 µM
CCNc1ccc(C2(O)C(=O)c3ccccc3C2=O)cc1,inconclusive: 16.2%,–
CCOc1nc(Nc2ccc(OC)cc2)nc(N2CCOCC2)n1,inconclusive: 13.2%,–
Cc1oc2c(c(C)cc3oc(=O)c(CC(=O)NCC(=O)NCC(=O)NCC(C)O)c(C)c32)c1C (stereo not drawn),–,"inconclusive: 20.6 µM [activator, single point]"
O=C(Nc1ccc(S(=O)(=O)NC2=NCCCCC2)cc1)c1ccc(=O)[nH]c1,inconclusive: -26.5%,–
COCCN1C(=O)C(=O)/C(=C(/O)c2ccc3c(c2)OCCO3)C1c1ccc(C(=O)OC)cc1 (stereo not drawn),inconclusive: -0.529%,–
COC(=O)[C@H](CCSC)NC(=O)NCc1cccs1,–,"inconclusive: 1.03 µM [falling, single point]"
C=CCNC(=S)N/N=C(\C)c1ccc(-n2ccnc2)cc1,inconclusive: 27.3%,–
O=C(CSc1nncs1)Nc1cc(-c2ccccc2)nn1-c1ccccc1,inconclusive: 10.9%,–
CCOC(=O)c1c(C)[nH]c(C(=O)OCC(=O)N(C)C2CCS(=O)(=O)C2)c1C (stereo not drawn),inconclusive: 16.9%,–

Compound,"lipid storage change, negative = inhibition",Potency
CCOc1ccc(NC(=O)COC(=O)C2C3CC4OC(=O)C2C4C3)cc1 (stereo not drawn),inconclusive: 47.6%,–
O=C(CCCn1c(=S)[nH]c2cc3c(cc2c1=O)OCO3)N1CCc2ccccc2C1,–,"inconclusive: 29.1 µM [falling, single point]"
O=C(CSc1ccc2ccccc2n1)N/N=C/c1ccccc1O,inconclusive: 16.3%,–
CC(=O)c1sc(NC(=O)c2c(F)cccc2F)nc1-c1ccccc1,inconclusive: 23%,–
COc1ccc(NC(=O)c2ccc(S(=O)(=O)N3CCOCC3)cc2)c(OC)c1,inconclusive: 37.5%,–
O=C(Nc1ccon1)c1sc2ccccc2c1Cl,–,"inconclusive: 0.82 µM [activator, partial curve]"
COc1cc(OC)cc(OCC(O)Cn2cnc3cc(C)c(C)cc32)c1 (stereo not drawn),inconclusive: 7.82% [at 9.22 µM],–
CCOc1cc(C(=O)Nc2ccc(F)cc2)cc(Br)c1OC,inconclusive: 6.07%,–
CCOc1ccc(C(=S)N2CCCC2)cc1OCC,inconclusive: 32.8%,–
CC(CNC(=O)c1ccc(N)cc1)NC(=O)c1ccc(N)cc1 (stereo not drawn),inconclusive: -5.77%,–
O=C(O)C1CCCCC1C(=O)NCCCCc1ccccc1 (stereo not drawn),inconclusive: 15.2%,–
O=C(Cn1c(CO)nc2ccccc21)NC1CCCCCC1,inconclusive: 44.7%,–
O=C(NNC(=O)[C@H]1CC=CC[C@H]1C(=O)O)c1ccc(Cl)cc1Cl,inactive,–
Cc1cc(C(=O)OCC(=O)Nc2cc(S(=O)(=O)N(C)C)ccc2Cl)c2ccccc2n1,–,"inconclusive: 0.103 µM [rising, full curve, poor fit]"
Nc1nonc1-n1nnc(C(=O)N/N=C/C2CC=CCC2)c1CSc1ccccc1 (stereo not drawn),inconclusive: 0.229%,–
Cc1nn(-c2ccccc2)c(Cl)c1/C=N/NS(=O)(=O)c1ccc(Br)cc1,inconclusive: 26.4%,–
CCCN(C(=O)c1ccc(-n2cncn2)c([N+](=O)[O-])c1)C1CCS(=O)(=O)C1 (stereo not drawn),–,"inconclusive: 6.51 µM [falling, single point]"
O=C(Nc1cc(Cl)cc(Cl)c1)C1CCCC1,–,active: 20.6 µM
CCOC(=O)COc1ccc(C(=O)c2ccccc2)c(O)c1,inconclusive: -9.31%,–
O=C(CN1C2=NCCCN2c2ccccc21)c1ccc2c(c1)OCO2,inconclusive: 20.8%,–
CCOc1ccc(S(=O)(=O)N2CCN(Cc3ccc4c(c3)OCO4)CC2)cc1OCC,inconclusive: -23.4%,–
COc1ccc(CCNS(=O)(=O)c2cn(C)cn2)cc1OC,–,"inconclusive: 23.1 µM [activator, single point]"
COc1ccc(CN(CCC(c2ccco2)C(C)C)C(C)=O)cc1OC (stereo not drawn),inconclusive: 15.6%,–
CCOCCn1c(CN2CCN(c3ccc(F)cc3)CC2)nc2c1c(=O)n(C)c(=O)n2C,–,"inconclusive: 29.1 µM [falling, single point]"
CC1CN(S(=O)(=O)c2cccc(C(F)(F)F)c2)CN1C(=O)N1CCOCC1 (stereo not drawn),–,"inconclusive: 0.0116 µM [falling, full curve, poor fit]"
CCC(C)c1ccc(S(=O)(=O)N2CCN(C(C)C(=O)NC3CCCC3)CC2)cc1 (stereo not drawn),inconclusive: -13.4%,–

# Gathered by group: the compounds so far with a COOH group (3)
Compound,"lipid storage change, negative = inhibition",Potency
O=C(CCN1C(=O)/C(=C\c2ccco2)SC1=S)Nc1ccc(C(=O)O)c(O)c1,inactive,–
O=C(O)C1CCCCC1C(=O)NCCCCc1ccccc1 (stereo not drawn),inconclusive: 15.2%,–
O=C(NNC(=O)[C@H]1CC=CC[C@H]1C(=O)O)c1ccc(Cl)cc1Cl,inactive,–

# (list continues)

Compound,"lipid storage change, negative = inhibition",Potency
Cc1cc(C)n(-c2ccc(C(=O)N3CCN(S(=O)(=O)c4ccc(Cl)cc4)CC3)cc2)n1,–,"inconclusive: 1.46 µM [activator, partial curve]"
O=C(NCc1ccco1)c1ccc2c(=O)n(-c3ccccc3)c(=S)[nH]c2c1,inconclusive: 0.204%,–
Cc1cccn2c(=O)c3cc(C(=O)N4CCCCC4)sc3nc12,inconclusive: -29%,–
COC(=O)Cc1ccc(NC(=O)c2ccc(C(C)(C)C)cc2)cc1,–,"inconclusive: 4.61 µM [rising, full curve]"
CCOC(=O)c1cnc(-n2nc(C)cc2C)nc1N(C)C,inconclusive: 34.2%,–
COc1ccc(S(=O)(=O)N2CCN(C)CC2)cc1C,–,"inconclusive: 0.259 µM [falling, partial curve, poor fit]"
O=C(O)c1ccc(Cl)c(S(=O)(=O)N(Cc2ccccc2)c2ccccc2)c1,inconclusive: 88.8%,–
COc1ccc(C2=CC(=O)C[C@H](c3ccc(OC)c(OC)c3)C2)cc1,inconclusive: -19.2%,–
COc1ccc2[nH]cc(C(=O)CN3CCN(C4CCCCC4)CC3)c2c1,–,"inconclusive: 29.1 µM [activator, single point]"
Cc1ccc2c(c1)N(C(=O)CCC(=O)NCc1ccccn1)CC(C)O2 (stereo not drawn),inconclusive: -22.4%,–
O=C(CN1CCN(S(=O)(=O)N2CCOCC2)CC1)Nc1ccc(Cl)c(Cl)c1,inconclusive: -118%,–
Cc1ccc(Oc2ccc(C(=O)NC3CCSC3=O)cn2)cc1 (stereo not drawn),inconclusive: -29.4%,–
COc1ccc(N2CCN(CC(=O)NCc3ccc(Cl)cc3)CC2)cc1,–,"inconclusive: 4.61 µM [falling, single point]"
CN(Cc1ccccc1)C(=S)Nc1cccnc1,inconclusive: -2.56%,–
O=C(c1ccco1)N1CCN(CC(=O)N2CCCc3c2c(=O)oc2ccc(O)cc32)CC1,–,"inconclusive: 20.6 µM [cytotoxic, single point]"
COc1ccc(-c2csc(NC(=O)c3c(OC)cccc3OC)n2)cc1,–,"inconclusive: 32.6 µM [activator, single point]"
O=C(COC(=O)CNC(=O)c1ccco1)Nc1ccccc1OC(F)F,inconclusive: 12.7%,–
CCc1nnc(NC(=O)CSc2nnc3c4ccccc4n(C)c3n2)s1,inconclusive: 8.62%,–
CC(=O)c1ccc(N2CCN(CC(=O)Nc3ccccc3C(=O)NC3CC3)CC2)c(F)c1,–,"inconclusive: 0.082 µM [falling, full curve]"
CCOCCCN(C(=O)c1snc(C(N)=O)c1N)C(C(=O)NC1CCCC1)c1ccc(O)c(OC)c1 (stereo not drawn),–,"inconclusive: 29.1 µM [falling, single point]"
O=C(CSc1nc2cc([N+](=O)[O-])ccc2n1-c1ccccc1)NCc1ccc2c(c1)OCO2,inconclusive: -53.3%,–
COc1ccccc1N(CC(=O)NCCc1ccccc1)C(=O)CCC(=O)Nc1ccccn1,inconclusive: 63.9%,–
CN(c1cccc(NC(=O)CSc2ccc(Cl)cc2)c1)S(C)(=O)=O,–,"inconclusive: 6.51 µM [activator, single point]"
O=C(NCc1ccccc1F)C1CCCN1C(=O)Nc1ccccc1 (stereo not drawn),inconclusive: -16.2%,–
CCOC(=O)c1c(NC(C)=O)sc2c(OCC(O)CN(CC)CC)c(Br)ccc12 (stereo not drawn),inconclusive: 2.63%,–
CCCn1cnc2cc(NC(=O)c3cccs3)ccc21,inconclusive: 18.7%,–
